Results are given in words; binding and its absence hold for the method and conditions named. In cells and extracts the contact can be indirect. A yes stands for co-enrichment or nearness to the bait. Other partners may have been found.
Target: MYC-BioID2-SOX9 (UniProt Q04887)
Assay: proximity labelling; BioID2 fused to SOX9 induced with 1 μg/ml DOX in cultured primary Krt14-rtTA EpdSCs; 50 μM biotin for 16 h; biotinylated proteins purified on magnetic beads and analysed by mass spectrometry; hits: found in two of three MYC-BioID2-SOX9 replicates and absent from all MYC-BioID2-GFP-NLS samples

By UniProt entry, the sequences of proteins in these tests, tags left out.
UniProt Q04887: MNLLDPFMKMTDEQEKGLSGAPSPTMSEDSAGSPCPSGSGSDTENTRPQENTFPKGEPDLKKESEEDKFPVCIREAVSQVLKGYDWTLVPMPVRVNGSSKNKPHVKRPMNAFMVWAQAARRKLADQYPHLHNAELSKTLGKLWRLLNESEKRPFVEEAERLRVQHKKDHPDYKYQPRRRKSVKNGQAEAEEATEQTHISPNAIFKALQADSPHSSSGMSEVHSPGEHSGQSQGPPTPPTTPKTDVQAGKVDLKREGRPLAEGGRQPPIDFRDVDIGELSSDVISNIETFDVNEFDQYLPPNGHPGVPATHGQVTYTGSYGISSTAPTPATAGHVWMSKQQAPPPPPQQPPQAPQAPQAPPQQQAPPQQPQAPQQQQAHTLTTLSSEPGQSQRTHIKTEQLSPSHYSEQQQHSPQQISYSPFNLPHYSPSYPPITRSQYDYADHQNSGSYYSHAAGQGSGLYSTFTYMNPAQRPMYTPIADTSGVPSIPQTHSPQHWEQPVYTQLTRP
UniProt E9Q4N7: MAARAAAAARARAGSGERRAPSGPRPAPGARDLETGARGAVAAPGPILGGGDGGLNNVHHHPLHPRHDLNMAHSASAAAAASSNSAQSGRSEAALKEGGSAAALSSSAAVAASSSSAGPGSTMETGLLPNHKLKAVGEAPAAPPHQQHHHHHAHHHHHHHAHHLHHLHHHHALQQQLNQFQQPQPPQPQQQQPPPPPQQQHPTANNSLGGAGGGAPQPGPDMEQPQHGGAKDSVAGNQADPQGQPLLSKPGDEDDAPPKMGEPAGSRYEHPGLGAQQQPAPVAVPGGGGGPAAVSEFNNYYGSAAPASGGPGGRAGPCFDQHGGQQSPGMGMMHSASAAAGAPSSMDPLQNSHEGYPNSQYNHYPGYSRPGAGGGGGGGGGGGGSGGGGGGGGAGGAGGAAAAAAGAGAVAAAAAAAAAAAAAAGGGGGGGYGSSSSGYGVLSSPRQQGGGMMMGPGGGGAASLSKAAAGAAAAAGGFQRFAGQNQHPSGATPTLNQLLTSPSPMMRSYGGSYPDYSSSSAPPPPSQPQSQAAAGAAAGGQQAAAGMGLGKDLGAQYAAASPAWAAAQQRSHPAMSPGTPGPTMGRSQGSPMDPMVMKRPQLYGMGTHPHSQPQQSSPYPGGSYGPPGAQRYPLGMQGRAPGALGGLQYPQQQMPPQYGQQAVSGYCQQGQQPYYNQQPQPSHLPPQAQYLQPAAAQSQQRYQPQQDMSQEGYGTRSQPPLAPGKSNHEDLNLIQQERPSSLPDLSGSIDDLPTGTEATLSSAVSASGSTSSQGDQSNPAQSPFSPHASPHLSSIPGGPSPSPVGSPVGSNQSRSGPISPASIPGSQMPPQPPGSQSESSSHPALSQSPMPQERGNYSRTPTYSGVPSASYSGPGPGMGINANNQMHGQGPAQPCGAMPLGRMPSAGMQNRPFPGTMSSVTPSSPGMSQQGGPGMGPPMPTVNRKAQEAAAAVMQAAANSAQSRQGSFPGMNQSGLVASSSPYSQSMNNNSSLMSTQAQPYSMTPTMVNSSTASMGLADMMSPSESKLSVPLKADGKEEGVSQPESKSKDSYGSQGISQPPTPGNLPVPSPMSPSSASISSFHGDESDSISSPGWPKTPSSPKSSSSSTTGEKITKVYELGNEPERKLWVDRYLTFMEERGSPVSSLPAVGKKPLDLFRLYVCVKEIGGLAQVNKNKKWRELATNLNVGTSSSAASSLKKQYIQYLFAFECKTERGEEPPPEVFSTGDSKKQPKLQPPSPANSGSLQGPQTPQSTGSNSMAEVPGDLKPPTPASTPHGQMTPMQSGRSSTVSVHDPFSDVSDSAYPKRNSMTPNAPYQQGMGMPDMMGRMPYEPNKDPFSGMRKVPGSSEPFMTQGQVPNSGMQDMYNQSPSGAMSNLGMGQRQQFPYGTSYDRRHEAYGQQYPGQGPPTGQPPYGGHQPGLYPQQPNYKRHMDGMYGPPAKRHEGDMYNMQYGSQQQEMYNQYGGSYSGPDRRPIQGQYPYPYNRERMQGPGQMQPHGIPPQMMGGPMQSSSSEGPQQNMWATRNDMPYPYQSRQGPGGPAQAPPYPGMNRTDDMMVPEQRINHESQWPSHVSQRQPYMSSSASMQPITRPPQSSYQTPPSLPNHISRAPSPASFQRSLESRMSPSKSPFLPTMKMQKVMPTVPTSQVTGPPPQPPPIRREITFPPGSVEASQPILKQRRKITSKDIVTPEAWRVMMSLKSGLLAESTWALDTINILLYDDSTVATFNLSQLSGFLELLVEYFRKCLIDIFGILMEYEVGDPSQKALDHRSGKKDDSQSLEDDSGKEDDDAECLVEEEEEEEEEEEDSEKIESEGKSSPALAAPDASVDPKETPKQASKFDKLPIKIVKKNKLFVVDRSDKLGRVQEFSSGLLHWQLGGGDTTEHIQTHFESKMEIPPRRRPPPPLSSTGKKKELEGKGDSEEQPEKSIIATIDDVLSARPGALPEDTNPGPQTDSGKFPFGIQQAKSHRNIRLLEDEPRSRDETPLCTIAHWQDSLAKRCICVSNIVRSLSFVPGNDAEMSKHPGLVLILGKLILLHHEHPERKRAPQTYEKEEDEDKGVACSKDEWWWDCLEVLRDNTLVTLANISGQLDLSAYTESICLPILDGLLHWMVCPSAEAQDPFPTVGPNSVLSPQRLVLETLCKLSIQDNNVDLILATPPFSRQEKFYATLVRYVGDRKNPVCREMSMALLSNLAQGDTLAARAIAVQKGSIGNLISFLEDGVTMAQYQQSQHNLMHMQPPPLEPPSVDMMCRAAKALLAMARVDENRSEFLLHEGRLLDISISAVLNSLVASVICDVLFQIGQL
UniProt Q8VI33: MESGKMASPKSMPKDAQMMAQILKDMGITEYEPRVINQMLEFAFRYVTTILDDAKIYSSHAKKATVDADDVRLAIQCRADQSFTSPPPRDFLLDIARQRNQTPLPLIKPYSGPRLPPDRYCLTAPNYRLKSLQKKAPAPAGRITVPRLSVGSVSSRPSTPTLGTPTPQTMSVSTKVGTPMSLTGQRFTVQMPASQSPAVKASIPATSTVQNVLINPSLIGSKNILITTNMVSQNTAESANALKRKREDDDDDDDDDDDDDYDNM
UniProt A2BH40: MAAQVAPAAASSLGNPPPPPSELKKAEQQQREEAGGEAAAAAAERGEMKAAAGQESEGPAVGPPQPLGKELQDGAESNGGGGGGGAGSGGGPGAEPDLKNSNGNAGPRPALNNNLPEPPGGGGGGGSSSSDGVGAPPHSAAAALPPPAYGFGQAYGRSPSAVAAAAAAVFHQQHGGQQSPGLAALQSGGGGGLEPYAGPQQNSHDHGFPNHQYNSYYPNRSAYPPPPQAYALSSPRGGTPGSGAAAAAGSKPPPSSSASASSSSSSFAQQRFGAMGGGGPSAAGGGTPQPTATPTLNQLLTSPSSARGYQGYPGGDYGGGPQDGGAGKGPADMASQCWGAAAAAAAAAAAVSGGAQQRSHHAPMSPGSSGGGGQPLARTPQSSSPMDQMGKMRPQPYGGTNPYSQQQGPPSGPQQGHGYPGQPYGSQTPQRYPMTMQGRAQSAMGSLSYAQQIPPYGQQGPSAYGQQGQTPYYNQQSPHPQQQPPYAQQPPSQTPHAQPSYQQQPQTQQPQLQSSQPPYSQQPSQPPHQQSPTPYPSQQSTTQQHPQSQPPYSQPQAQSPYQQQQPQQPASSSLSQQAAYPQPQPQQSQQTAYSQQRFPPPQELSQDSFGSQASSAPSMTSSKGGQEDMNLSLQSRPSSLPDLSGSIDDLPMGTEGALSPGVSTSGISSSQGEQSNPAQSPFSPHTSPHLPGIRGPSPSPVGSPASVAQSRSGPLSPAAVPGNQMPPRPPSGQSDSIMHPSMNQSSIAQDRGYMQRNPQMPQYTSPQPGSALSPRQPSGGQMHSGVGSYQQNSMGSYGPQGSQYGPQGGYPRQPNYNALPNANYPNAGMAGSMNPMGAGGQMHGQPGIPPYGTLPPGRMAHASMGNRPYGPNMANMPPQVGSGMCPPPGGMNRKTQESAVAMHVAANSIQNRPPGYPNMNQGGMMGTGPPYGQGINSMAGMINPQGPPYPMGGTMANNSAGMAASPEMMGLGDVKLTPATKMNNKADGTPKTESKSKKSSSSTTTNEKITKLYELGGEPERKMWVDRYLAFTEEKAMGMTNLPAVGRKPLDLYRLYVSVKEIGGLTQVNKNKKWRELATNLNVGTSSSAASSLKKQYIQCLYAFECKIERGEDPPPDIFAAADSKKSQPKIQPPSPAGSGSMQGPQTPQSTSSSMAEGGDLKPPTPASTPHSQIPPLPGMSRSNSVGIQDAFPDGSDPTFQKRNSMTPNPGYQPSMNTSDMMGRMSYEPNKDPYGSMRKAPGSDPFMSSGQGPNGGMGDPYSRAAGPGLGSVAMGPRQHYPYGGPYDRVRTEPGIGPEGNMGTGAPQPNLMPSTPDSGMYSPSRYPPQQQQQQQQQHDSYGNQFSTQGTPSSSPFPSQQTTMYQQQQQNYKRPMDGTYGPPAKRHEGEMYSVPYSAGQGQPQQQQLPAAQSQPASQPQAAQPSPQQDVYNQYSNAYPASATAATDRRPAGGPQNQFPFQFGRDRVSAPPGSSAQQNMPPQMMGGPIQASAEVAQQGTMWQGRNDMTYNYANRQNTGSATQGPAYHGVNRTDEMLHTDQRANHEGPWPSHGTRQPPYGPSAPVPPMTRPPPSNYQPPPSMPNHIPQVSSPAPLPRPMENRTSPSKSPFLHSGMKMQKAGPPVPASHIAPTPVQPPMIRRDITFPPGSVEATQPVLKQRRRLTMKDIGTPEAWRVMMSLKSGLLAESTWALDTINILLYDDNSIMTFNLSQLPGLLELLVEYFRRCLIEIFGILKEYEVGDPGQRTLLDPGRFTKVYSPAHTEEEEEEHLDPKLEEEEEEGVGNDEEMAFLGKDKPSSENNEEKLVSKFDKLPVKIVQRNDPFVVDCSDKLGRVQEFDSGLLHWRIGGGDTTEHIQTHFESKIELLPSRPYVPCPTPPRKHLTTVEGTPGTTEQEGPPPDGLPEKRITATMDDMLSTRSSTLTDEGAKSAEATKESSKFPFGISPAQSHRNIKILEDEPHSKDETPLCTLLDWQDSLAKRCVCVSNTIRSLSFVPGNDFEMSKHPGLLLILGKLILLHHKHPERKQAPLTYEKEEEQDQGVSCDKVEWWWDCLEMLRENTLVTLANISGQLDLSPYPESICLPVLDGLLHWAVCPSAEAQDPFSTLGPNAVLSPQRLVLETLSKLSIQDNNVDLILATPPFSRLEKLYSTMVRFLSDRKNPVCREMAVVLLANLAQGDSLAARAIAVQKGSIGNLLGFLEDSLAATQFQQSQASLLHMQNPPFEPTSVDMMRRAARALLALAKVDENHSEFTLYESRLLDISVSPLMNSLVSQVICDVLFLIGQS
UniProt Q99JR8: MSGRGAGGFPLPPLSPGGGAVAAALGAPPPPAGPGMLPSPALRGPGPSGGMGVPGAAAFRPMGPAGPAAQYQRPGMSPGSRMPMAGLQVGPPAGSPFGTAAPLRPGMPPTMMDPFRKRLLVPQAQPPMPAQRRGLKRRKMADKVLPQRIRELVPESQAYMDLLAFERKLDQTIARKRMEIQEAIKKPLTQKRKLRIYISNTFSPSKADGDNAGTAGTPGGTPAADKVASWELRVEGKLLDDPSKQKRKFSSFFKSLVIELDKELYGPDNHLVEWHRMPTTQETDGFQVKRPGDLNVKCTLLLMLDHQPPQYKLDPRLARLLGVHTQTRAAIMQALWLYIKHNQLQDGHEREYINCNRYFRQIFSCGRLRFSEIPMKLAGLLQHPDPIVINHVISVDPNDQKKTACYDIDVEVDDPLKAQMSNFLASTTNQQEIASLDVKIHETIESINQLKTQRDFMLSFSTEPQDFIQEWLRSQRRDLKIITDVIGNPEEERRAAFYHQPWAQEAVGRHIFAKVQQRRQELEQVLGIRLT

In the case of ARID1b (from UniProt E9Q4N7 1-2306), the binding is reported as “binds”.

TAF9 (from UniProt Q8VI33 1-264) was tested, and the binding was “binds”.

For MLL1 (from UniProt P55200 1-3966), the binding was “binds”.

ARID1a (from UniProt A2BH40 1-2283) was tested, and the binding was “binds”.

For SMARCD2 (from UniProt Q99JR8 1-531), the binding was “binds”.

B1: FOSL2 (protein, UniProt P47930 1-326)
chain: MYQDYPGNFDTSSRGSSGSPAHAESYSSGGGGQQKFRVDMPGSGSAFIPTINAITTSQDLQWMVQPTVITSMSNPYPRSHPYSPLPGLASVPGHMALPRPGVIKTIGTTVGRRRRDEQLSPEEEEKRRIRRERNKLAAAKCRNRRRELTEKLQAETEELEEEKSGLQKEIAELQKEKEKLEFMLVAHGPVCKISPEERRSPPTSGLQSLRGTGSAVGPVVVKQEPPEEDSPSSSAGMDKTQRSVIKPISIAGGGFYGEEPLHTPIVVTSTPAITPGTSNLVFTYPNVLEQESPSSPSESCSKAHRRSSSSGDQSSDSLNSPTLLAL
In the case of B1, the binding is reported as “binds”.

B2: JUNB (protein, UniProt P09450 1-344)
chain: MCTKMEQPFYHDDSYAAAGYGRSPGSLSLHDYKLLKPTLALNLADPYRGLKGPGARGPGPEGSGAGSYFSGQGSDTGASLKLASTELERLIVPNSNGVITTTPTPPGQYFYPRGGGSGGGTGGGVTEEQEGFADGFVKALDDLHKMNHVTPPNVSLGASGGPQAGPGGVYAGPEPPPVYTNLSSYSPASAPSGGSGTAVGTGSSYPTATISYLPHAPPFAGGHPAQLGLSRGASAFKEEPQTVPEARSRDATPPVSPINMEDQERIKVERKRLRNRLAATKCRKRKLERIARLEDKVKTLKAENAGLSSAAGLLREQVAQLKQKVMTHVSNGCQLLLGVKGHAF
For B2, the binding was “binds”.
